Source: PubChem BioAssay AID1347076 (National Center for Advancing Translational Sciences (NCATS), 2019)
Screen size: about 400,000 compounds; about 13,000 (3.2%) were called active. This list was built around the results that the source calls inconclusive (neither active nor inactive); the mix of calls is not that of the screen. Calls come from the whole dose curve; as a rule, active = well fitted cell-killing curve with a large enough effect; inconclusive = small, poorly fitted or top-dose-only effect, or effect the other way; inactive = flat fitted curve, though single readings scatter. A potency beside an inconclusive call is a rough fit, not a confirmed value.

assay: qHTS assay for MDR1-selective chemotherapeutics: Primary screen using the drug-selected MDR subline cells KB-V1; settings: KB-V1 MDR cells viability, CellTiter-Glo, 72 h; activity change, negative = cytotoxicity: at 46.1 µM (top of the series); note: nearly all actives have a fitted effect of over 60% in size
Method in brief: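 Cytotoxicity toward P-gp-expressing KB-V1 cells was determined as loss of CellTiter-Glo luminescence after 72 h at 37 degrees C. Compounds were tested in quantitative HTS format across a concentration range, with curves fitted to normalized data.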
% is set by controls: 0 for no effect and ±100 for the full control effect; potency is the fitted concentration of half-maximal effect.

Row | Compound | Potency | activity change, negative = cytotoxicity
1 | Clc1ccc(-c2noc(COc3ccccc3)n2)cc1 | inconclusive: 25.9 µM [cytotoxic, single point] | 
2 | CC1(c2nnc(Cc3ccccc3)o2)CC(c2ccc(F)cc2)=NO1 (configuration not stated) | inconclusive: 0.58 µM [cytotoxic, partial curve, poor fit] | 
3 | Cc1cc(CN(C)C(=O)CC2C(=O)NCCN2Cc2c(F)cccc2Cl)n[nH]1 (configuration not stated) | inconclusive: 29.1 µM [rising, single point] | 
4 | C[C@@H]1CN([C@@H](C)CO)C(=O)CCCn2nncc2CO[C@@H]1CN(C)C(=O)Nc1ccc(C(C)(C)C)cc1 |  | inactive: 30%
5 | C=CCn1c(COc2ccc3c(c2)CCCC3)nnc1SCC(=O)Nc1cccc(SC)c1 | active: 14.6 µM | 
6 | O=C(NCC(c1ccco1)N1CCCCC1)c1cccc(S(=O)(=O)Nc2ccc(F)cc2)c1 (configuration not stated) |  | inactive: 8.13%
7 | O=C(COC(=O)Cn1cnc2ccccc21)NCCCc1ccccc1 | inconclusive: 29.1 µM [rising, single point] | 
8 | S=C(NCc1ccco1)Nc1cccc(Cl)c1Cl |  | inactive: 5.17%
9 | Cc1ccc(-n2nc3c(N4CCC(C(=O)NCCc5ccccc5C)CC4)nnc(C)c3c2C)cc1 | inconclusive: 0.0366 µM [rising, full curve] | 
10 | COc1ccc(CCOC(=O)c2cccc(NC(C)=O)c2)cc1 | inconclusive: 29.1 µM [cytotoxic, single point] | 
11 | COc1ccc(/C=N/NC(=O)c2ccc(CSc3nc(C)cc(C)n3)cc2)c(OC)c1OC | inconclusive: 29.1 µM [cytotoxic, single point] | 
12 | Cc1ccc(S(=O)(=O)N/N=C\c2ccc3c(c2)OCO3)cc1 |  | inactive: -4.14%
13 | O=C(c1ccc2c(c1)N(Cc1ccccc1)C(=O)c1ccccc1S2=O)N1CCC(Cc2ccccc2)CC1 (configuration not stated) | inconclusive: 29.1 µM [cytotoxic, single point] | 
14 | COc1ccc(CNC(=O)c2cccc(-c3ccc(C)c4ccccc34)n2)cc1 | inconclusive: 29.1 µM [cytotoxic, partial curve, poor fit] | 
15 | N=C(N)SCc1ccccn1 |  | inactive: 10.9%
16 | COc1cc(Cl)ccc1OCc1cc(C(=O)N2CCN(C)C(=O)[C@@H]2C)no1 | inconclusive: 29.1 µM [cytotoxic, single point] | 
17 | COc1ccc(-c2cc(-c3ccccc3)nc(N)n2)c(O)c1 | active: 20.6 µM | 
18 | CCOc1ccccc1NC(=O)c1cc(C(=O)c2cc(OC)ccc2O)coc1=N | active: 11.6 µM | 
19 | CCOC(=O)C1=CN(CC)S(=O)(=O)NC1CCc1ccccc1 (configuration not stated) |  | inactive: 0.0002%
20 | O=S(=O)(c1ccc(SCCOc2cccc(Br)c2)nc1)N1CCCC1 | inconclusive: 29.1 µM [cytotoxic, single point] | 
21 | CCOC(=O)c1c(NC(=O)C2=COCCO2)sc2c1CCN(C(=O)OC)C2 | inconclusive: 29.1 µM [cytotoxic, single point] | 
22 | CCCSc1nnc(NC(=O)Nc2ccccc2)s1 | active: 20.6 µM | 
23 | CNc1ncc(C(=O)c2ccc(Br)cc2)s1 | inconclusive: 29.1 µM [cytotoxic, single point] | 

Reformatted: results already given.

| Row | Compound | Potency | activity change, negative = cytotoxicity |
| --- | --- | --- | --- |
| 2 | CC1(c2nnc(Cc3ccccc3)o2)CC(c2ccc(F)cc2)=NO1 (configuration not stated) | inconclusive: 0.58 µM [cytotoxic, partial curve, poor fit] |  |
| 3 | Cc1cc(CN(C)C(=O)CC2C(=O)NCCN2Cc2c(F)cccc2Cl)n[nH]1 (configuration not stated) | inconclusive: 29.1 µM [rising, single point] |  |
| 4 | C[C@@H]1CN([C@@H](C)CO)C(=O)CCCn2nncc2CO[C@@H]1CN(C)C(=O)Nc1ccc(C(C)(C)C)cc1 |  | inactive: 30% |
| 5 | C=CCn1c(COc2ccc3c(c2)CCCC3)nnc1SCC(=O)Nc1cccc(SC)c1 | active: 14.6 µM |  |
| 6 | O=C(NCC(c1ccco1)N1CCCCC1)c1cccc(S(=O)(=O)Nc2ccc(F)cc2)c1 (configuration not stated) |  | inactive: 8.13% |
| 7 | O=C(COC(=O)Cn1cnc2ccccc21)NCCCc1ccccc1 | inconclusive: 29.1 µM [rising, single point] |  |
| 8 | S=C(NCc1ccco1)Nc1cccc(Cl)c1Cl |  | inactive: 5.17% |
| 9 | Cc1ccc(-n2nc3c(N4CCC(C(=O)NCCc5ccccc5C)CC4)nnc(C)c3c2C)cc1 | inconclusive: 0.0366 µM [rising, full curve] |  |
| 10 | COc1ccc(CCOC(=O)c2cccc(NC(C)=O)c2)cc1 | inconclusive: 29.1 µM [cytotoxic, single point] |  |
| 11 | COc1ccc(/C=N/NC(=O)c2ccc(CSc3nc(C)cc(C)n3)cc2)c(OC)c1OC | inconclusive: 29.1 µM [cytotoxic, single point] |  |
| 12 | Cc1ccc(S(=O)(=O)N/N=C\c2ccc3c(c2)OCO3)cc1 |  | inactive: -4.14% |
| 13 | O=C(c1ccc2c(c1)N(Cc1ccccc1)C(=O)c1ccccc1S2=O)N1CCC(Cc2ccccc2)CC1 (configuration not stated) | inconclusive: 29.1 µM [cytotoxic, single point] |  |
| 14 | COc1ccc(CNC(=O)c2cccc(-c3ccc(C)c4ccccc34)n2)cc1 | inconclusive: 29.1 µM [cytotoxic, partial curve, poor fit] |  |
| 15 | N=C(N)SCc1ccccn1 |  | inactive: 10.9% |
| 16 | COc1cc(Cl)ccc1OCc1cc(C(=O)N2CCN(C)C(=O)[C@@H]2C)no1 | inconclusive: 29.1 µM [cytotoxic, single point] |  |
| 17 | COc1ccc(-c2cc(-c3ccccc3)nc(N)n2)c(O)c1 | active: 20.6 µM |  |
| 18 | CCOc1ccccc1NC(=O)c1cc(C(=O)c2cc(OC)ccc2O)coc1=N | active: 11.6 µM |  |
| 19 | CCOC(=O)C1=CN(CC)S(=O)(=O)NC1CCc1ccccc1 (configuration not stated) |  | inactive: 0.0002% |
| 20 | O=S(=O)(c1ccc(SCCOc2cccc(Br)c2)nc1)N1CCCC1 | inconclusive: 29.1 µM [cytotoxic, single point] |  |
| 21 | CCOC(=O)c1c(NC(=O)C2=COCCO2)sc2c1CCN(C(=O)OC)C2 | inconclusive: 29.1 µM [cytotoxic, single point] |  |

The results go on:

Row | Compound | Potency | activity change, negative = cytotoxicity
24 | CS(=O)(=O)N(CC(=O)NCCSC1CCCCC1)c1ccccc1 | inconclusive: 29.1 µM [cytotoxic, single point] | 
25 | COc1ccccc1N1CCN(C(=O)c2sc3nc(C)nc(N4CCN(c5ccccn5)CC4)c3c2C)CC1 | inconclusive: 25.9 µM [cytotoxic, single point] | 
26 | OC1(c2ccc(Cl)cc2)CN(c2ccccc2)C2=[N+]1CCS2 (configuration not stated) | inconclusive: 18.4 µM [cytotoxic, single point] | 
27 | O=C(Nc1ccccc1N1CCOCC1)c1cc(-c2ccco2)nc2ccccc12 | inconclusive: 20.6 µM [cytotoxic, partial curve, poor fit] | 
28 | CCOc1cccc(-c2nn(-c3ccccc3)cc2/C=C(/C#N)C(=O)NCCCn2ccnc2)c1 | inconclusive: 18.4 µM [cytotoxic, single point] | 
29 | CCOC(=O)Cn1c(=O)oc2cc(S(=O)(=O)NC(C)(C)CC)ccc21 | inconclusive: 0.0291 µM [rising, full curve] | 
30 | COC(=O)c1ccc(C(=O)OCCCc2nc3ccc(N)cc3[nH]2)cc1 | inconclusive: 29.1 µM [rising, single point] | 
31 | Clc1ccc(Nc2ncnc3c2cnn3-c2ccccc2)cc1 | inconclusive: 20.6 µM [cytotoxic, single point] | 
32 | COC(=O)c1cc(S(=O)(=O)N2CCN(c3ccc(F)cc3)CC2)cn1C | inconclusive: 20.6 µM [cytotoxic, single point] | 
33 | CN1/C(=C/c2cc[n+](C)c3ccccc23)C=Cc2ccccc21 |  | inactive: -23.6%
34 | Clc1ccc(-c2nnc3n2CCCS3)cc1 | inconclusive: 29.1 µM [cytotoxic, single point] | 
35 | COC(=O)[C@]1(Cc2ccccc2)N[C@H](c2ccc(-c3ccc(F)cc3)cc2)[C@@H]2C(=O)N(C)C(=O)[C@@H]21 |  | inconclusive: -31.7% [cytotoxic]
36 | O=C(NCCCNC(=O)c1ccc(-c2cccc(Cl)c2)o1)c1cnccn1 | inconclusive: 8.2 µM [cytotoxic, partial curve] | 
37 | O=C(CC1C(=O)NCCN1Cc1c(F)cccc1Cl)NCCCn1ccnc1 (configuration not stated) | inconclusive: 29.1 µM [rising, single point] | 
38 | Cc1ccc(C(=O)N2CCN(S(=O)(=O)c3ccccc3C#N)CC2)cc1S(=O)(=O)N1CCOCC1 | inconclusive: 29.1 µM [rising, single point] | 
39 | CC1C(=O)Nc2ccc(S(=O)(=O)NCCc3ccc(Cl)cc3)cc2NC1=O (configuration not stated) | inconclusive: 29.1 µM [rising, single point] | 
40 | O=S(=O)(c1ccc(-c2cnc(C3CC3)o2)cc1)N1CCN(c2cccc(Cl)c2)CC1 | inconclusive: 14.6 µM [cytotoxic, partial curve, poor fit] | 
41 | C=CCn1c(-c2cccnc2Cl)nc2cc(Cl)c(Cl)cc21 |  | inactive: -20.5%
42 | CCOC(=O)[C@]12CCC=C1N(Cc1ccc(Cl)cc1Cl)C(=O)[C@H](CC(=O)NCc1ccccc1)C2 | inconclusive: 5.8 µM [cytotoxic, partial curve] | 
43 | CCCNC(=O)C1(C)CCN1C(=O)c1ccccc1CCc1ccccc1 (configuration not stated) |  | inactive: -5.63%
44 | CCCc1cc(C(=O)Nc2ccc(F)c(Cl)c2)no1 | inconclusive: 29.1 µM [rising, single point] | 
45 | COc1ccc(CCNC(=O)c2ccc(Cl)c(S(=O)(=O)N3CCCCCC3)c2)cc1 | inconclusive: 32.6 µM [cytotoxic, single point] | 
46 | COc1ccc(CCNC(=O)c2cc(C(C)C)on2)cc1OC | inconclusive: 1.46 µM [cytotoxic, full curve] | 

Row | Compound | Potency | activity change, negative = cytotoxicity
47 | O=C(CN1C(=O)CCC1=O)Nc1nc2c(F)cc(F)cc2s1 | inconclusive: 25.9 µM [cytotoxic, single point] | 
48 | CC(C)N(c1ccccc1)c1ccc(NC(=O)[C@@H]2O[C@H](CO)[C@H](O)[C@H](O)[C@H]2O)cc1 |  | inactive: 1.48%
49 | COc1ccc(C(=NNc2ccccc2C(=O)O)c2ccc(OC)cc2)cc1 | inconclusive: 29.1 µM [cytotoxic, single point] | 
50 | CCc1cc(C(N)=O)c(NC(=O)c2ccc(OC)cc2)s1 | inconclusive: 7.31 µM [cytotoxic, partial curve, poor fit] | 
51 | O=C(CCSc1nnc2ccccn12)Nc1ccc2c(c1)OCO2 | inconclusive: 4.11 µM [rising, full curve, poor fit] | 
52 | Cc1ccccc1C(=O)OCC(=O)NCC1COc2ccccc2O1 (configuration not stated) |  | inactive: 1.18%
53 | COc1ccc(Cl)cc1NC(=O)CN(C)C(=O)c1cc(-c2cccs2)nn1-c1ccccc1 | inconclusive: 18.4 µM [cytotoxic, single point] | 
54 | Cc1ccc(N/C(N)=N/c2nc(CSc3nnc(C)s3)cc(=O)[nH]2)c(C)c1 | inconclusive: 29.1 µM [cytotoxic, single point] | 
55 | COc1ccc(-c2c[n+]3c(n2-c2c(C)n(C)n(-c4ccccc4)c2=O)CCCCC3)cc1 | inconclusive: 0.0046 µM [rising, full curve, poor fit] | 
56 | CC1(C)CC(=O)C([N+](=O)[O-])=C(NCCCC(=O)O)C1 |  | inactive: 0.272%
57 | CCOC(=O)N1CCC(NC(=O)c2cc(COc3ccc(F)cc3Cl)on2)CC1 |  | inactive: -0.351%
58 | Cc1ccc(NC(=O)CN(C)C(=O)Cc2ccccc2F)cc1 | inconclusive: 29.1 µM [rising, partial curve, poor fit] | 
59 | Cc1ccc(C)c(S(=O)(=O)N2CCN(C(=O)CCNS(=O)(=O)c3ccccc3)CC2)c1 | inconclusive: 23.1 µM [cytotoxic, single point] | 
60 | CC1CCN(S(=O)(=O)c2ccc(NC(=O)[C@@H]3CCCN3C(=O)c3cccs3)cc2)CC1 | active: 20.6 µM | 
61 | Cc1ccc(NC(=S)N(Cc2ccc(Br)cc2)Cc2ccc(C(=O)O)cc2)cc1C |  | inactive: -0.649%
62 | CNC(=S)N/N=C/c1c(C)nn(-c2ccc(F)cc2)c1Cl |  | inactive: 1.99%
63 | CCOc1ncccc1C(=O)OCC(=O)c1ccc(Cl)s1 |  | inactive: 9.51%
64 | Cc1c(-c2ccccc2)n(-c2ccccc2O)c2nc3c(c(=O)n(C)c(=O)n3C)n12 | inconclusive: 16.4 µM [cytotoxic, single point] | 
65 | CCOC(=O)CSc1nc2ccccc2n1C(=O)OCC | inconclusive: 25.9 µM [rising, partial curve] | 
66 | CN=C1SC(CC(=O)Nc2cc(Cl)ccc2Cl)C(=O)N1C (configuration not stated) | inconclusive: 16.4 µM [cytotoxic, single point] | 
67 | CC(=O)c1cccc(NC(=S)NC(=O)c2ccc(C)cc2)c1 | inconclusive: 29.1 µM [cytotoxic, single point] | 
